According to the supplement of paper PMC12067093, “Discovery and optimisation of a covalent ligand for TRIM25 and its application to targeted protein ubiquitination” (Chemical Science, 2025):
The list shows a part of the results.

The chains behind the UniProt entries cited, without tags or fusion partners. Where a name states a change or a piece, a line headed by the entry shows the natural chain unless it says otherwise.
UniProt Q96I24: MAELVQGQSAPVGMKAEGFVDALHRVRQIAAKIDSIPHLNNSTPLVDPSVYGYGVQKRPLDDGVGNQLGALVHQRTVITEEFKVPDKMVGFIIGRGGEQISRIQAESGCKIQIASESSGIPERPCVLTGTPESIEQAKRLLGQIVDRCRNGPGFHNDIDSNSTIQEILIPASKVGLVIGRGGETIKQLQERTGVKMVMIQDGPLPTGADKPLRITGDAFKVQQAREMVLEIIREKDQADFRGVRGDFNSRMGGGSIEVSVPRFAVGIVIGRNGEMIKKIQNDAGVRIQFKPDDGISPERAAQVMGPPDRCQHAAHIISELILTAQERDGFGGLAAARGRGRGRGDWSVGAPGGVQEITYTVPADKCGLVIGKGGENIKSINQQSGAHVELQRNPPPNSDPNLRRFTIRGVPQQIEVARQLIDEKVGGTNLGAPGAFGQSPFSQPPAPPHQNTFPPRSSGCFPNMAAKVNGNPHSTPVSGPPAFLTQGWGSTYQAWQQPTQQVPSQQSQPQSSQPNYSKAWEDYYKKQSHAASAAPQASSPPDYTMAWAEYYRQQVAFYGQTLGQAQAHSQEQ
UniProt Q9Y2H6: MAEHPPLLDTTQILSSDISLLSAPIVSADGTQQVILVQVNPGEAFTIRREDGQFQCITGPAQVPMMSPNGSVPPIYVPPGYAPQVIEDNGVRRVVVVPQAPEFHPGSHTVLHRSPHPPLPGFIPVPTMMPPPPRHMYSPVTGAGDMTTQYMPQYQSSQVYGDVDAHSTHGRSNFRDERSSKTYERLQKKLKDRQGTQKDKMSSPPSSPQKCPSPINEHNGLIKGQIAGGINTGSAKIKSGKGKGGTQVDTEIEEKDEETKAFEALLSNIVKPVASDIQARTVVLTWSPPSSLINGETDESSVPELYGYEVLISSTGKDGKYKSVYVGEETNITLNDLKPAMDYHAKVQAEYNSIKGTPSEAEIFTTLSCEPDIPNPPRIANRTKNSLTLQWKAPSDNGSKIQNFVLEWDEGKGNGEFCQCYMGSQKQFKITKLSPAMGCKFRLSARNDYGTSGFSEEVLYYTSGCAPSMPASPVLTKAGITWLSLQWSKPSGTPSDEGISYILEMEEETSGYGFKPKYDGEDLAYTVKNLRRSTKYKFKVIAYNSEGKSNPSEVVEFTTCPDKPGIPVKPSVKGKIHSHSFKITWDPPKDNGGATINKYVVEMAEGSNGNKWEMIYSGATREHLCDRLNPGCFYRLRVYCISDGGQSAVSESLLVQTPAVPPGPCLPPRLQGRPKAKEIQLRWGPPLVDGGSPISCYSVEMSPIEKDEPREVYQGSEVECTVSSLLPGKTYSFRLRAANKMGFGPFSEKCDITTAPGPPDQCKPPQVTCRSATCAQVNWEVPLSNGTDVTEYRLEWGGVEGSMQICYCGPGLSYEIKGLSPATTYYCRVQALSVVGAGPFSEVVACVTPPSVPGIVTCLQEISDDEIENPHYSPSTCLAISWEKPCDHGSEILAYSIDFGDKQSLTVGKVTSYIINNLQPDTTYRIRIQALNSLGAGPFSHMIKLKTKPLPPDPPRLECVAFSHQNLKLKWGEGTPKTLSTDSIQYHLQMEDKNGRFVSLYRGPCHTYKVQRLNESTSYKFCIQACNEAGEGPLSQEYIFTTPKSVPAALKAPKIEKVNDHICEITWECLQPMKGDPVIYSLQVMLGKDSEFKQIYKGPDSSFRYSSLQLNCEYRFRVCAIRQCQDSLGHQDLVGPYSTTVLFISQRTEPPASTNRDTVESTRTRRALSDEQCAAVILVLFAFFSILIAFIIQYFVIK
UniProt Q13642: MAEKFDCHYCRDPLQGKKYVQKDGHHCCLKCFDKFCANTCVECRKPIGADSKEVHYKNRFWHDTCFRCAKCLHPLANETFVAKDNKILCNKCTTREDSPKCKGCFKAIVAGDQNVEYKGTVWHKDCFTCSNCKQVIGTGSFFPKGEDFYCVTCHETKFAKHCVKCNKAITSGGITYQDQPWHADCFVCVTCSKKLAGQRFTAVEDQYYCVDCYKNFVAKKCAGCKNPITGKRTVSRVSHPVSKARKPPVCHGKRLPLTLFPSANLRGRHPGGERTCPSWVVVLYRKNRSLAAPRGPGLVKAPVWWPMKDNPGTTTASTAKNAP
UniProt Q9Y613: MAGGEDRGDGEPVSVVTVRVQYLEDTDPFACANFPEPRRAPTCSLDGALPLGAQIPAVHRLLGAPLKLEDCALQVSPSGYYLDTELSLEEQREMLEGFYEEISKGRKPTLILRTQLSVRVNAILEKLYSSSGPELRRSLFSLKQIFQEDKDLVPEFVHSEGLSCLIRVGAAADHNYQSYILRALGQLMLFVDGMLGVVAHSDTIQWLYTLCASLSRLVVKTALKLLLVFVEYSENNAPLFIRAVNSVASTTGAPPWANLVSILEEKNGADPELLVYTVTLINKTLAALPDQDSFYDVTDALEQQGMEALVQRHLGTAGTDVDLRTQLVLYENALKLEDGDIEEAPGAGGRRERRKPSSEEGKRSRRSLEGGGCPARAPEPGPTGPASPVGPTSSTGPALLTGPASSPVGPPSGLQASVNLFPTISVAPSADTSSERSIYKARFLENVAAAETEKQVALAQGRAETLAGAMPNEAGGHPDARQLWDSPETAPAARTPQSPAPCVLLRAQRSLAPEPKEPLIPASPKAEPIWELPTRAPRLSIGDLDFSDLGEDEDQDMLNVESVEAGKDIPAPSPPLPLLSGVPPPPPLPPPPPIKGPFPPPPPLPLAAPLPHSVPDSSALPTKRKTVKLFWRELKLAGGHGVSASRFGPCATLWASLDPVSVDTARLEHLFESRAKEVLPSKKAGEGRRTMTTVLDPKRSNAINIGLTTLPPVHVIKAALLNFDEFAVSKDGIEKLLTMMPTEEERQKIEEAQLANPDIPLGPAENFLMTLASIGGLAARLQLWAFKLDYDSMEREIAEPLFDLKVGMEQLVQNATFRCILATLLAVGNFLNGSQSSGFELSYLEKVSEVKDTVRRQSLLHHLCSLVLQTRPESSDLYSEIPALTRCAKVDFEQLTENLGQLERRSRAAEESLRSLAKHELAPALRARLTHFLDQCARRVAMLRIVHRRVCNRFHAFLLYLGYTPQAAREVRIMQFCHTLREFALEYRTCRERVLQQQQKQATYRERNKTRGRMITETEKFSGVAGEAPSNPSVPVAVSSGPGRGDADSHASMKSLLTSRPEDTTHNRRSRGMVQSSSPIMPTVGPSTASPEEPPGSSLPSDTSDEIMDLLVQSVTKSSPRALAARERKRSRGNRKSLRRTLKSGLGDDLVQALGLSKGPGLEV
UniProt O75369, whole entry, looked up: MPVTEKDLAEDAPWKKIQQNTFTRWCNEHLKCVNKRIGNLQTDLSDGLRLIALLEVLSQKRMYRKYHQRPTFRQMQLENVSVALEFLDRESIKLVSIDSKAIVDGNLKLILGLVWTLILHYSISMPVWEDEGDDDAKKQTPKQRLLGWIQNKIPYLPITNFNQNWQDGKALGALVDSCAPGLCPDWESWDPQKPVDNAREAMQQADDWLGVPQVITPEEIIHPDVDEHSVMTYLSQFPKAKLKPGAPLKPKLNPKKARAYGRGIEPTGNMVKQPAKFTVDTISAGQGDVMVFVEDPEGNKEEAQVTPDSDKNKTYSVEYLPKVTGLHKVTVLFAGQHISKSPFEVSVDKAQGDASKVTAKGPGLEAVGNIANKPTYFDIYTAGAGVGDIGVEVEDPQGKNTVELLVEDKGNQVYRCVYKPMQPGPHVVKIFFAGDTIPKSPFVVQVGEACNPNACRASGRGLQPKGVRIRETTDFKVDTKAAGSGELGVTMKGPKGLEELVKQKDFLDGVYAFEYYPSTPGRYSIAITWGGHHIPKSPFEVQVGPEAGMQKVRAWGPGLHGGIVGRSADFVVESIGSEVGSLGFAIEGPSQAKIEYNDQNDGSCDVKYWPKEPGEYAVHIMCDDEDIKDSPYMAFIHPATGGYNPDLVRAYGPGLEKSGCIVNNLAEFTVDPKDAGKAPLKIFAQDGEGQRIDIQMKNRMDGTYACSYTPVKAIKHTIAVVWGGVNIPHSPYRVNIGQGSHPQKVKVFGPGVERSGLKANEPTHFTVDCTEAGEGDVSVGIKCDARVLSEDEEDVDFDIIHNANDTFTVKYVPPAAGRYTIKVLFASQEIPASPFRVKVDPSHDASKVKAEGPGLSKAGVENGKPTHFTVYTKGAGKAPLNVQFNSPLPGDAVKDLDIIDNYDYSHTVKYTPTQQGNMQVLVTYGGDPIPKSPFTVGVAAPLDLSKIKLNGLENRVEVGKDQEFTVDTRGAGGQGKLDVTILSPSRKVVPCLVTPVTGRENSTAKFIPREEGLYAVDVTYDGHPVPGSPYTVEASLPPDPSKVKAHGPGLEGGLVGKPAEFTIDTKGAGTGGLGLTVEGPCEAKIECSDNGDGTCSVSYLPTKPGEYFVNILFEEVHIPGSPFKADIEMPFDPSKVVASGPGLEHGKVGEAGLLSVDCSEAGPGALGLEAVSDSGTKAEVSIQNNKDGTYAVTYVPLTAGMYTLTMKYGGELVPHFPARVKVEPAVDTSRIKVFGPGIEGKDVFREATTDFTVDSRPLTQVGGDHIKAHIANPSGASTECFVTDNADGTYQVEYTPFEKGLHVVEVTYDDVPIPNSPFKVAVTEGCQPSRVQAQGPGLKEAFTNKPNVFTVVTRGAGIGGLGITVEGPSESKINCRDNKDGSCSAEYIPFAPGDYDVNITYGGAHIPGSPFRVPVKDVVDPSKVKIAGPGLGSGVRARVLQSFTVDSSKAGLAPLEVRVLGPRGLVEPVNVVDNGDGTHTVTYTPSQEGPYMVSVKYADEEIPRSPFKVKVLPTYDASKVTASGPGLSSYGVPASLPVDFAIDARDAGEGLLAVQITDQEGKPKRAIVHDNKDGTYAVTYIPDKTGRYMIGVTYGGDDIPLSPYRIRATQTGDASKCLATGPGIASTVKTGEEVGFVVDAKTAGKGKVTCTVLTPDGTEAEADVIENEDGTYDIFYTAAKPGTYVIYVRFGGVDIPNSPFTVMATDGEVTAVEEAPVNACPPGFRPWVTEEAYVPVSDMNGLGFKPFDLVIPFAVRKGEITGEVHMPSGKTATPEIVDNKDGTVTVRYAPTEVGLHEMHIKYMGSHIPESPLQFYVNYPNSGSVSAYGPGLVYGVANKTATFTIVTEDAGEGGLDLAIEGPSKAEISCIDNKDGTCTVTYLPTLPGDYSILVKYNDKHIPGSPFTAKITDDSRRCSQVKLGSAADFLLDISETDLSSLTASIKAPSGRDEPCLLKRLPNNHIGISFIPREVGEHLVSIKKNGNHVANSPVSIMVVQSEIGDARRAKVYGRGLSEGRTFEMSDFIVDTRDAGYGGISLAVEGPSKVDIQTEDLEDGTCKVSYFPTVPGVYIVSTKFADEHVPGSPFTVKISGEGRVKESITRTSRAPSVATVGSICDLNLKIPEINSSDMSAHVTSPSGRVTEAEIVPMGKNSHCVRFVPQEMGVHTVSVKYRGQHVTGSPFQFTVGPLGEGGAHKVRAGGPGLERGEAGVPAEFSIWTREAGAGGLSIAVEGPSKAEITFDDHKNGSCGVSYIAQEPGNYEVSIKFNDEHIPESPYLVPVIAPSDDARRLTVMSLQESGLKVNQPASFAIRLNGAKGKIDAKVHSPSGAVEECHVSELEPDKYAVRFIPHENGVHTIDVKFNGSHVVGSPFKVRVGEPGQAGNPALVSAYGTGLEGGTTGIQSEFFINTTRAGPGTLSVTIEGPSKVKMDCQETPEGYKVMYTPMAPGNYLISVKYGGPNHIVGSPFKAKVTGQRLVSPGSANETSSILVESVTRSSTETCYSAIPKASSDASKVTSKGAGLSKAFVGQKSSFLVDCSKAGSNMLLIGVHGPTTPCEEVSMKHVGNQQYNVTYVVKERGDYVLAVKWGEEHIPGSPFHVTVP
UniProt Q96RU3: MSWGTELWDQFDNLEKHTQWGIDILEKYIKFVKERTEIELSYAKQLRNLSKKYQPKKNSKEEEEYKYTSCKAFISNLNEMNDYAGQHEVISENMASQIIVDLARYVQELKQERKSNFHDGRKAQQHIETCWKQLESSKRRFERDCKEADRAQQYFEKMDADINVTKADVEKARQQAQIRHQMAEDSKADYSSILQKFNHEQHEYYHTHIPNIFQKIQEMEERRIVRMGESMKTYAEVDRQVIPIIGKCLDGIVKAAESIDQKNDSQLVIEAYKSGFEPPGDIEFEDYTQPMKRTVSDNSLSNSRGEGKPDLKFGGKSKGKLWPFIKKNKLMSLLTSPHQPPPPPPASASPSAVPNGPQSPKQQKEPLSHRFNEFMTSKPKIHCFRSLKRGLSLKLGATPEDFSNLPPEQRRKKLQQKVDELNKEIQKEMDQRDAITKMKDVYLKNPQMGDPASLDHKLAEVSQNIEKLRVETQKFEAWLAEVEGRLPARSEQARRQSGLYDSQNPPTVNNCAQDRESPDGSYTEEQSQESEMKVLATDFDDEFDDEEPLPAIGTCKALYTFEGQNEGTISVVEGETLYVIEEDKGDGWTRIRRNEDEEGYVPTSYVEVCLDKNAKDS

Compound: CC1Cc2ccccc2N1C(=O)C1CCCN(C1)C(=O)CCl (mixture of isomers) [TRIM25 ligand 11 (diastereomer mixture)]
Assay: probe-labelled cysteine peptide fold change vs DMSO (competition) (log2 fold change); higher = less target engagement (more negative = stronger competition)
Details: THP-1, incubation time: 4 h
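Note: competitive chemoproteomic profiling in live THP-1 cells with an iodoacetamide desthiobiotin (IA-DTB) probe, comparing probe-labelled peptide intensities in compound-treated cells against DMSO-treated controls.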

Target	probe-labelled cysteine peptide fold change (10 µM)	probe-labelled cysteine peptide fold change (50 µM)
FLII_Q13045_119_LDDLSVLDLSHNQLTECPR (UniProt Q13045)	0.16	0.088
GAK_O14976_472_VSECGWAAR (UniProt O14976)	-0.0728	-0.068
FUBP3_Q96I24_310_CQHAAHIISELILTAQER (UniProt Q96I24)	-0.0735	-0.0571
FN1_P02751_461_FGFCPMAAHEEICTTNEGVMYR (UniProt P02751)	0.0257	0.00918
FNDC3A_Q9Y2H6_762_CDITTAPGPPDQCKPPQVTCR (UniProt Q9Y2H6)	-0.0387	0.0709
FHL1_Q13642-1_276_FVFHQEQVYCPDCAK (UniProt Q13642)	0.215	0.0469
FHOD1_Q9Y613_43_APTCSLDGALPLGAQIPAVHR (UniProt Q9Y613)	0.156	0.151
FSCN1_Q16658_80_DGNVTCER (UniProt Q16658)	-0.0775	-0.0447
FLNB_O75369_706_MDGTYACSYTPVK (UniProt O75369)	0.024	-0.214
FHL1_Q13642-1_273+276_FVFHQEQVYCPDCAK (UniProt Q13642)	0.107	0.16
FNBP1_Q96RU3_511_RQSGLYDSQNPPTVNNCAQDR (UniProt Q96RU3)	0.269	-0.0608
FSCN1_Q16658_80_YLAADKDGNVTCER (UniProt Q16658)	-0.346	-0.134
FHOD1_Q9Y613_31_VQYLEDTDPFACANFPEPR (UniProt Q9Y613)	-0.209	0.138
